Assay results reported in patent publication EP0673649A1, “Pharmaceutical compositions for the prolonged release of trimetazidine after oral administration” (ADIR ET COMPAGNIE, priority 1994, dated 1995).
For some assays here: The name of at least one read-out is uncertain. For some assays here: At least one compound was matched to its structure with a doubt left.

Columns and labels:
[1] = in vitro dissolution / release of trimetazidine dihydrochloride from reservoir forms; type: physicochemical; settings: for temps de latence: release of trimetazidine dihydrochloride through a film containing this plasticizer (figure 1)
[2] = room temperature; cited from earlier work
[3] = plasticizer added at 20 % to Eudragit RS® film; measured with chlorhydrate de phénylpropanolamine; cited from earlier work

| Structure (SMILES) | libération du dichlorhydrate de trimétazidine, comparaison des plastifiants ([1]; comparison of plasticizers in the film (figure 1)) | Solubilité dans l'eau à température ambiante [2] | temps de latence [1] | Perméabilité [3] |
| --- | --- | --- | --- | --- |
| CCCCOC(=O)CC(CC(=O)OCCCC)(OC(C)=O)C(=O)OCCCC [Acétyltributylcitrate] | les meilleurs résultats | <0.002% |  |  |
| CCOC(=O)CC(CC(=O)OCC)(OC(C)=O)C(=O)OCC [Acétyltriéthylcitrate] |  | 0.72% | très long qui peut atteindre quatre heures | 3.8 mg.cm⁻².h⁻¹ |
| CC(=O)OCC(COC(C)=O)OC(C)=O [Triacétine] |  | 7.1% |  |  |
| CCCCOC(=O)CC(O)(CC(=O)OCCCC)C(=O)OCCCC [Tributylcitrate] |  | <0.002% |  |  |
| CCOC(=O)CC(O)(CC(=O)OCC)C(=O)OCC [Triéthylcitrate] |  |  | très long qui peut atteindre quatre heures |  |
